This is one part of the list.

Chains of the proteins cited; added tags and fusions are not shown. Lines headed by an entry give the natural chain unless they say otherwise; changes in a name come on top.
UniProt Q8TAA9: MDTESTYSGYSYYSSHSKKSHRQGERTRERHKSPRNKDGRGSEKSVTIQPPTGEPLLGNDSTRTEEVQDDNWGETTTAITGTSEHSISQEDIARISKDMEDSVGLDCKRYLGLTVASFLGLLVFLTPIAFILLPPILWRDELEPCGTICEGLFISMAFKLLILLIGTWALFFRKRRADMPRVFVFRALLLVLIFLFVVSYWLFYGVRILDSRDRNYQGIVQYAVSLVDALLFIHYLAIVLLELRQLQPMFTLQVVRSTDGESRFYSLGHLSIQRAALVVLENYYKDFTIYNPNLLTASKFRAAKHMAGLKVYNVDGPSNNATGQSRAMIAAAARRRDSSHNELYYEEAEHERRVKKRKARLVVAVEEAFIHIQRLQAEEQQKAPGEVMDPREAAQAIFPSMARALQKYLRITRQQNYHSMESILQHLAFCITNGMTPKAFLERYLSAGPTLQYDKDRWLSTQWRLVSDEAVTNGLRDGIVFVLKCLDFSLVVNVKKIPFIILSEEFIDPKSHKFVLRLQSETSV
UniProt Q99536: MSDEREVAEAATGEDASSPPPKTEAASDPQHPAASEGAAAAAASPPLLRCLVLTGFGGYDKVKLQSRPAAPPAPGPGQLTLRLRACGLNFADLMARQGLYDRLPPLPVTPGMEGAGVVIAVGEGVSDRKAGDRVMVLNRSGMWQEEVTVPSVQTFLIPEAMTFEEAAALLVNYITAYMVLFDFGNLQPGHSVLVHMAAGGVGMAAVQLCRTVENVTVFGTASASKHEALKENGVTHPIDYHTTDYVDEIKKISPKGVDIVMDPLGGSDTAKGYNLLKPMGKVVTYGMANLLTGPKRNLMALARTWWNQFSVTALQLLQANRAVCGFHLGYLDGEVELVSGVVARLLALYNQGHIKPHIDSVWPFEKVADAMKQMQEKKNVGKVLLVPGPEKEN
UniProt O94888: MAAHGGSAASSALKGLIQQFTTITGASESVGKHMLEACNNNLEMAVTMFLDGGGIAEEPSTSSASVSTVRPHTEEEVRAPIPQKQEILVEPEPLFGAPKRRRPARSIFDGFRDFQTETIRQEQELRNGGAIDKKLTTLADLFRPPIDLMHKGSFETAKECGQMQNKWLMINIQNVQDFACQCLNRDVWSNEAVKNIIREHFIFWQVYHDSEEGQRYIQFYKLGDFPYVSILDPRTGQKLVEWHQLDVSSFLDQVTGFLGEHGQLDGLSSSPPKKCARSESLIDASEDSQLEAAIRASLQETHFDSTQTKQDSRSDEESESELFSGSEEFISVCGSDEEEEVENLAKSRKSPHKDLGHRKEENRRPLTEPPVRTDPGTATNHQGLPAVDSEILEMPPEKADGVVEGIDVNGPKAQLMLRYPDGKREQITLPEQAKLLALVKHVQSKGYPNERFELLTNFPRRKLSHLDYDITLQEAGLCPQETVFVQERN
UniProt Q9BZL1: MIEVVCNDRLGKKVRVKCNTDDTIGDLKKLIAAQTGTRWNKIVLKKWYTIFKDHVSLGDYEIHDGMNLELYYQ
UniProt P10746: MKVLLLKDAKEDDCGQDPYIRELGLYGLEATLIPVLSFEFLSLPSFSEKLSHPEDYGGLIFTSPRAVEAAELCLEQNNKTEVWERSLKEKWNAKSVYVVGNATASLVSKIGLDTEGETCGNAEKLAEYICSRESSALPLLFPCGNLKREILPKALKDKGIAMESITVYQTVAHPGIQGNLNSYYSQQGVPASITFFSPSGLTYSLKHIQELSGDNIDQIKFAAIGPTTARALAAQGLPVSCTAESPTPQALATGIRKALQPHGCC
UniProt Q7Z6J8: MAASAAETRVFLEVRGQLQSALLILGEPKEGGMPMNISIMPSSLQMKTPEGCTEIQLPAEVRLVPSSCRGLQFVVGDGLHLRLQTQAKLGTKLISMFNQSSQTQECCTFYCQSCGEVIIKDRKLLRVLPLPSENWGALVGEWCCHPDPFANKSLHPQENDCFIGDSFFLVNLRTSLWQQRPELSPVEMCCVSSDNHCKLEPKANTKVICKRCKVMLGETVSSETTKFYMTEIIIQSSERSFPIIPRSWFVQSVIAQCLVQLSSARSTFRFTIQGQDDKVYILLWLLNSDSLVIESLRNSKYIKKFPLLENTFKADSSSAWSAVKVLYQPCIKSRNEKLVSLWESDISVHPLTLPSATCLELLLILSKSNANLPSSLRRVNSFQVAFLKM
UniProt O94874: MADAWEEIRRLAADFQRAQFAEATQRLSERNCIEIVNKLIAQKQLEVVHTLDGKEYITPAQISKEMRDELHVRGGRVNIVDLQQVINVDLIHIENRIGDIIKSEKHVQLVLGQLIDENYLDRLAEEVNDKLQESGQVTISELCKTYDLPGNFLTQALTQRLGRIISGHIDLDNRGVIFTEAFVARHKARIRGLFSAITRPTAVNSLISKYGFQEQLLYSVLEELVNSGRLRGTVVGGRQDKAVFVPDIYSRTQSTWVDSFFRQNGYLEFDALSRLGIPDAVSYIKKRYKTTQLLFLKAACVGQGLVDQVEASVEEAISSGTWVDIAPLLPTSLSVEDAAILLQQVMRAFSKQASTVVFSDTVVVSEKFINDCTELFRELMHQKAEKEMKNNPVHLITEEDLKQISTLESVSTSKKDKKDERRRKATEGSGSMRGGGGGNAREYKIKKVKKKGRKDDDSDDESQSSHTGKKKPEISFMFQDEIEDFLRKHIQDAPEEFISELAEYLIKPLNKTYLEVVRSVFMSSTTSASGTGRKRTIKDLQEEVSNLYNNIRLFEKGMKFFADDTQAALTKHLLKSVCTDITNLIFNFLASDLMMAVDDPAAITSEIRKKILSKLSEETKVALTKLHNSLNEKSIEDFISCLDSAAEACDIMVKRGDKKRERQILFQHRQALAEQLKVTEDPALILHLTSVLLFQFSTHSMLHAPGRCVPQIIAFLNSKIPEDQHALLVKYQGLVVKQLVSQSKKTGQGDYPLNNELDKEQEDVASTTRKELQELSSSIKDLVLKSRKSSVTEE
UniProt Q9UMX0, whole entry, looked up: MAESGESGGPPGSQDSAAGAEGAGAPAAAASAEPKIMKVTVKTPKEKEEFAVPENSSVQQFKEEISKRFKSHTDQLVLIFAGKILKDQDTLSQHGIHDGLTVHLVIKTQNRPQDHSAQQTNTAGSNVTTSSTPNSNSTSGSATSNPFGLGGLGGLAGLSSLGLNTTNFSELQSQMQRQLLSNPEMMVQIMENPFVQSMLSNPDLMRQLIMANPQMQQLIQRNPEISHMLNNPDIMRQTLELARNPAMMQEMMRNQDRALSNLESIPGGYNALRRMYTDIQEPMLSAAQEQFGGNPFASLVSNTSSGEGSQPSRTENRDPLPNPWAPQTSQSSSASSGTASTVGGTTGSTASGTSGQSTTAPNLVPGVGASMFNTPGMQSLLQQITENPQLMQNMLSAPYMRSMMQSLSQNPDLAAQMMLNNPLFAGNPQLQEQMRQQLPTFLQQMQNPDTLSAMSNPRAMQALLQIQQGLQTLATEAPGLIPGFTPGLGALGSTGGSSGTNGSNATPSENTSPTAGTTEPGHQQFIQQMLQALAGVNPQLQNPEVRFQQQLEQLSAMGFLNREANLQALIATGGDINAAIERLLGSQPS
UniProt O14949: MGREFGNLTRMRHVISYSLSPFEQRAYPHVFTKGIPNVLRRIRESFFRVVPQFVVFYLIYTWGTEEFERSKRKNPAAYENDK
UniProt Q92890: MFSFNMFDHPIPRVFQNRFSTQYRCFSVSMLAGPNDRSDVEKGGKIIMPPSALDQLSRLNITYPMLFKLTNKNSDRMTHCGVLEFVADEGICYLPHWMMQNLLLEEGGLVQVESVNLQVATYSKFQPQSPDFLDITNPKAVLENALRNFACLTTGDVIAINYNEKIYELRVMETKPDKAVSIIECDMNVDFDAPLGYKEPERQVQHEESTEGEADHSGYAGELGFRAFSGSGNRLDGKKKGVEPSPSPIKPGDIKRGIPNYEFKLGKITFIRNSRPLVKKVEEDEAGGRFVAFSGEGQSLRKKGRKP
UniProt Q9H3U1: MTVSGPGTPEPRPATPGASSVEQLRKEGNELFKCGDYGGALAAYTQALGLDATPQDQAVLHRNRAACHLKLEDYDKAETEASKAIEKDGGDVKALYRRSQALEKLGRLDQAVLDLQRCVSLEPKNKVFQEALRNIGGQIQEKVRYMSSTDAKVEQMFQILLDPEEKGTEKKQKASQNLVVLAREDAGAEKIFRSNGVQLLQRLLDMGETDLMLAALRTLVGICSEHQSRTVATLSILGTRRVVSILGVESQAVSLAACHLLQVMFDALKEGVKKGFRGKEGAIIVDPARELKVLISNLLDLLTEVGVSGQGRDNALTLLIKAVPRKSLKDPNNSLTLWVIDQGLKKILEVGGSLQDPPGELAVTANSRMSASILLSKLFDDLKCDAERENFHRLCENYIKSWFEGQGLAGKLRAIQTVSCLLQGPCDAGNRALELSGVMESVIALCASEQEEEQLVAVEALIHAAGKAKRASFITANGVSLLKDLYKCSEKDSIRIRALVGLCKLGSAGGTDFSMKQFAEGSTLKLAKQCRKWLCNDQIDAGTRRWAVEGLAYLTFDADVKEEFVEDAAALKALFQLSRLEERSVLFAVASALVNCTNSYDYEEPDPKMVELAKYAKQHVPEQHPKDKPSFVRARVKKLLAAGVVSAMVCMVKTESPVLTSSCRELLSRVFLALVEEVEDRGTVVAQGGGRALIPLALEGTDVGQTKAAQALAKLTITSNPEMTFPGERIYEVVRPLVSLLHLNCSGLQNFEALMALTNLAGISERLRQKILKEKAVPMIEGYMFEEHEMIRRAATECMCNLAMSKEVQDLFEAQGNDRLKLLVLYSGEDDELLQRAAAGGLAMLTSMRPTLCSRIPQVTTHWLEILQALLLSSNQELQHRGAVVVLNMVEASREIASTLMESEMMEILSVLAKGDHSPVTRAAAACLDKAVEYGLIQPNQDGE
UniProt Q9UDW1: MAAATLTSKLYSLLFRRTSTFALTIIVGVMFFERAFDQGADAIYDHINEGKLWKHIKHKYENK
UniProt Q04323: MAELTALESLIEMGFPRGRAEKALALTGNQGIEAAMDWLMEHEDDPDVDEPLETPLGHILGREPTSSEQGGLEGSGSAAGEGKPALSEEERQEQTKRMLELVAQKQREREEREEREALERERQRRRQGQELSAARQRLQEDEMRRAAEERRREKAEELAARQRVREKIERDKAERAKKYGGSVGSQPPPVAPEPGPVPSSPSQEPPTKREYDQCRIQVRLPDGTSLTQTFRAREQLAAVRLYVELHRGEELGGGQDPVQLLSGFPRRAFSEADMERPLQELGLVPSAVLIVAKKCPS
UniProt P26640: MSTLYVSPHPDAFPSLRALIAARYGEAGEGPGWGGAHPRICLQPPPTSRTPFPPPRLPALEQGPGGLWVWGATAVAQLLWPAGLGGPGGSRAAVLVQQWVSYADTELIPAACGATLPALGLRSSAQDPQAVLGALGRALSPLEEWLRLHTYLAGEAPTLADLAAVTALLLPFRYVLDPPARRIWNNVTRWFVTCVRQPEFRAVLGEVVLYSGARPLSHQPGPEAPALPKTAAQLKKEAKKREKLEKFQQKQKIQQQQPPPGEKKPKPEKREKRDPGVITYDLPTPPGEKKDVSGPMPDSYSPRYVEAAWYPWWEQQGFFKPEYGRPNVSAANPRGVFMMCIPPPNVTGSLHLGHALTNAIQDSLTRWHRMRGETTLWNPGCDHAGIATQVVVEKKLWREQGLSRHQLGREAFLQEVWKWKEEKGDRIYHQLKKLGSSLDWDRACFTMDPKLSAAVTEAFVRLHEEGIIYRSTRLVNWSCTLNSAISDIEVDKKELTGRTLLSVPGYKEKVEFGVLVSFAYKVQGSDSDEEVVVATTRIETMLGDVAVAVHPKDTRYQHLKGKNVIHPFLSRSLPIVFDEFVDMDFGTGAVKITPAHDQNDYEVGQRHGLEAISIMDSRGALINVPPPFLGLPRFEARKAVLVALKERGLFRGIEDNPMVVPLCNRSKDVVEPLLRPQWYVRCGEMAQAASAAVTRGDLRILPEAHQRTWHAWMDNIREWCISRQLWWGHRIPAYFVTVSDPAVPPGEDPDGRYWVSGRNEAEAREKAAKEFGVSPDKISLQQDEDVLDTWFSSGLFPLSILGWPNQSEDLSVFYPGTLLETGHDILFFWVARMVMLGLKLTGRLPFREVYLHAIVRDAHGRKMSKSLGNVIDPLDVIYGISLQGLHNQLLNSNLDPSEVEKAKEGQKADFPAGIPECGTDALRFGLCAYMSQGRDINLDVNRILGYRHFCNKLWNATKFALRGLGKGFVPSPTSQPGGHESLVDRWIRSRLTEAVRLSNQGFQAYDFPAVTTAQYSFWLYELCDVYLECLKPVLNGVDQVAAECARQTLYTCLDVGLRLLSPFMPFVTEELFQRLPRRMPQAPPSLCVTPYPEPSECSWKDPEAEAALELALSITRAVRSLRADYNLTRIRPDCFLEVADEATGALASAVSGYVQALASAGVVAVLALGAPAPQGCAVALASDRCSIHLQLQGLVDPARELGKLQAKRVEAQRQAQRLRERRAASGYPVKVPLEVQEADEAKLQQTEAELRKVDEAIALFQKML
UniProt P14927: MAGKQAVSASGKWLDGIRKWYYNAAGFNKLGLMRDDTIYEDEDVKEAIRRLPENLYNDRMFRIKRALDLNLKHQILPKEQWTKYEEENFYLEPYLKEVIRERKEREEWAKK

Compound in this assay: C/C(=N\NC(=O)C1=CC(=CC=C1)S(=O)(=O)N2CCOCC2)/C3=C(C=CC(=C3)Cl)O
The assay can be described thus: log2 fold change, soluble protein after heating vs DMSO (PISA); higher = thermal stabilisation; K562 cells, 10 uM, 30 min; active = over 0.2 and 3.5 SD of the protein, either way, in both replicates (recomputed). Summed up:
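Soluble protein was quantified by TMTpro 16plex LC-MS/MS after channel sums were equalised. It was obtained as the supernatant after 21,000xg for 90 min from pooled aliquots of K562 cells (2×10^6 cells/mL, 10 μM compound, 30 min) heated for 3 min across 48°C-58°C and extracted in PBS with 0.5% NP-40 at 4°C. Thermal stability values are relative to control samples and come from duplicates. They are given as log2 fold changes.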
On to VANGL1 (UniProt Q8TAA9), for which the log2 fold change was inactive: -0.136. With URGCP (UniProt Q8TCY9), the log2 fold change is inactive: -0.013.

As for VAT1 (UniProt Q99536), the log2 fold change was inactive: 0.013. Then UBL7 (UniProt Q96S82), with inactive: -0.007; and USP10 isoform 2 (UniProt Q14694), with inactive: 0.051; and UBXN7 (UniProt O94888), with inactive: 0.051. Then USP19 isoform 6 (UniProt O94966), with inactive: 0.073. On to UBL5 (UniProt Q9BZL1), for which the log2 fold change was inactive: 0.048.

As to UQCRH (UniProt P07919), the log2 fold change is inactive: -0.082. UROS (UniProt P10746): the log2 fold change is inactive: 0.1. UBR5 (UniProt O95071): the log2 fold change is inactive: 0.007. Then UBE3D (UniProt Q7Z6J8), with inactive: -0.018. Then UFL1 (UniProt O94874), with inactive: 0.075; and UTP14A (UniProt Q9BVJ6), with inactive: -0.15; and UBQLN1 (UniProt Q9UMX0), with inactive: -0.049. On to UQCRQ (UniProt O14949), for which the log2 fold change was inactive: -0.037. Then UFD1 isoform 1 (UniProt Q92890), with inactive: 0.019.

As to UNC45A (UniProt Q9H3U1), the log2 fold change is inactive: 0.1. As to UQCR10 (UniProt Q9UDW1), the log2 fold change is inactive: 0.056.

In the case of UBXN1 (UniProt Q04323), the log2 fold change was inactive: 0.033. As to VARS (UniProt P26640), the log2 fold change was inactive: 0.052. Consider UQCRB (UniProt P14927), for which the log2 fold change is inactive: 0.002. Then USP47 (UniProt Q96K76), with inactive: 0.034.

(Values after the supplement of paper PMC10849652.)
